Source: patent US20240190985A1
Results are given in words; binding and its absence hold for the method and conditions named. Some entries that bind do so weakly or less than the wild type. For some of these results: Tags and fused reporters may be left off the sequences shown.

B1: clone 10 in the scFv-Fc format (Fc fusion)
chain: QVQLQQSGPVLVKPSQTLSLTCAISGDSVSSDTTAWSWIRQSPSRGLEWLGWTYYRSKWFNYYAVSVKSRVTINPDTSKNQFSLQLSSVTPEDTAVYYCARGNGNGGMDVWGQGTTVTVSSGILGSGGGGSGGGGSGGGGSSYVLTQPPSVSVSPGQTARITCSGDALPKQYAYWYQQKPGQAPVLVIFKDSERPSGIPERFSGSSSGTTVTLTISGVQAEDEADYYCQSADNSGFYQVFGGGTQLTVLSGSSSSLEGCKPCICTVPEVSSVFIFPPKPKDVLTITLTPKVTCVVVDISKDDPEVQFSWFVDDVEVHTAQTQPREEQFNSTFRSVSELPIMHQDWLNGKEFKCRVNSAAFPAPIEKTISKTKGRPKAPQVYTIPPPKEQMAKDKVSLTCMITDFFPEDITVEWQWNGQPAENYKNTQPIMDTDGSYFVYSKLNVQKSNWEAGNTFTCSVLHEGLHNHHTEKSLSHSPGKGGGGLNDIFEAQKIEWHESRHHHHHH
B2: 10A1 in the yeast display format (scFv, V domains shown)
VH: QVQLQQSGPVLVKPSQTLSLTCAISGDSISSDTTAWSWIRRSPSRGLEWLGWTYYRSKWFNYYAVSVKGRVTINPDTSKNQFSLQLSSVTPEDTAVYYCARGNGNGGMDVWGQGTTVTVSS
VL: SYVLTQPASASVSPGQTARITCSGDALPKQYAYWYQQKPGQAPVLVIFKDSERPSGVPERFSGSSSGTTVTLTISGAQAEDEADYYCQSVDNSGFYQVFGGGTQLTVL
B3: 10A1 VH_K58A (yeast display format) (scFv, V domains shown)
VH: QVQLQQSGPVLVKPSQTLSLTCAISGDSISSDTTAWSWIRRSPSRGLEWLGWTYYRSAWFNYYAVSVKGRVTINPDTSKNQFSLQLSSVTPEDTAVYYCARGNGNGGMDVWGQGTTVTVSS
VL: SYVLTQPASASVSPGQTARITCSGDALPKQYAYWYQQKPGQAPVLVIFKDSERPSGVPERFSGSSSGTTVTLTISGAQAEDEADYYCQSVDNSGFYQVFGGGTQLTVL
B4: 10A1 VH_F60A (yeast display format) (scFv, V domains shown)
VH: QVQLQQSGPVLVKPSQTLSLTCAISGDSISSDTTAWSWIRRSPSRGLEWLGWTYYRSKWANYYAVSVKGRVTINPDTSKNQFSLQLSSVTPEDTAVYYCARGNGNGGMDVWGQGTTVTVSS
VL: SYVLTQPASASVSPGQTARITCSGDALPKQYAYWYQQKPGQAPVLVIFKDSERPSGVPERFSGSSSGTTVTLTISGAQAEDEADYYCQSVDNSGFYQVFGGGTQLTVL
B5: 10A1 VH_N105A (yeast display format) (scFv, V domains shown)
VH: QVQLQQSGPVLVKPSQTLSLTCAISGDSISSDTTAWSWIRRSPSRGLEWLGWTYYRSKWFNYYAVSVKGRVTINPDTSKNQFSLQLSSVTPEDTAVYYCARGNGAGGMDVWGQGTTVTVSS
VL: SYVLTQPASASVSPGQTARITCSGDALPKQYAYWYQQKPGQAPVLVIFKDSERPSGVPERFSGSSSGTTVTLTISGAQAEDEADYYCQSVDNSGFYQVFGGGTQLTVL
B6: 10A1 VL_K29A (yeast display format) (scFv, V domains shown)
VH: QVQLQQSGPVLVKPSQTLSLTCAISGDSISSDTTAWSWIRRSPSRGLEWLGWTYYRSKWFNYYAVSVKGRVTINPDTSKNQFSLQLSSVTPEDTAVYYCARGNGNGGMDVWGQGTTVTVSS
VL: SYVLTQPASASVSPGQTARITCSGDALPAQYAYWYQQKPGQAPVLVIFKDSERPSGVPERFSGSSSGTTVTLTISGAQAEDEADYYCQSVDNSGFYQVFGGGTQLTVL
B7: 10A1 VL_K49A (yeast display format) (scFv, V domains shown)
VH: QVQLQQSGPVLVKPSQTLSLTCAISGDSISSDTTAWSWIRRSPSRGLEWLGWTYYRSKWFNYYAVSVKGRVTINPDTSKNQFSLQLSSVTPEDTAVYYCARGNGNGGMDVWGQGTTVTVSS
VL: SYVLTQPASASVSPGQTARITCSGDALPKQYAYWYQQKPGQAPVLVIFADSERPSGVPERFSGSSSGTTVTLTISGAQAEDEADYYCQSVDNSGFYQVFGGGTQLTVL
B8: 10A1 VL_Y96A (yeast display format) (scFv, V domains shown)
VH: QVQLQQSGPVLVKPSQTLSLTCAISGDSISSDTTAWSWIRRSPSRGLEWLGWTYYRSKWFNYYAVSVKGRVTINPDTSKNQFSLQLSSVTPEDTAVYYCARGNGNGGMDVWGQGTTVTVSS
VL: SYVLTQPASASVSPGQTARITCSGDALPKQYAYWYQQKPGQAPVLVIFKDSERPSGVPERFSGSSSGTTVTLTISGAQAEDEADYYCQSVDNSGFAQVFGGGTQLTVL

Columns and labels:
mouse CD99 (mouse) [1] = target: T1, mouse CD99 (mouse) (UniProt Q8VCN6); experiment: binding of 1 µM Fv scFv-Fc to CD99 from different species (FIG. 1C)
T1 sequence (looked up): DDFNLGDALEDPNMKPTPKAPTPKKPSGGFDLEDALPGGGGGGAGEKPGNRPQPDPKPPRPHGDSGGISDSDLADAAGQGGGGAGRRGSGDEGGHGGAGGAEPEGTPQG

[2] = target: T2, CD99 endogenously expressed on cells (Jurkat, KOPT-K1) (human) (UniProt P14209); experiment: flow cytometry on Jurkat cells (FIG. 1E)
T2 sequence (chain, O-linked glycosylation (natural, on cells)): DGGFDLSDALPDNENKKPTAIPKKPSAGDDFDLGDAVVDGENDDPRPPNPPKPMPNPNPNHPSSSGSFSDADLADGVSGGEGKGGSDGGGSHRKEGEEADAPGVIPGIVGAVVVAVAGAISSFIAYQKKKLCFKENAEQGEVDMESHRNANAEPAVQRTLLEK

mouse CD99 (mouse) [3] = target: T1, mouse CD99 (mouse); experiment: binding of scFv-Fc to CD99 from different species (FIG. 1C)
[4] = target: SAV-CD99 complex (biotinylated CD99 ECD tetramerized on streptavidin) (human); experiment: titration of tetramerized CD99 on yeast-displayed scFv
[5] = target: SAV-CD99 complex (biotinylated CD99 ECD tetramerized on streptavidin) (human); experiment: yeast display, binding signal with 100 nM SAV-CD99 complex (FIG. 5E)

| Binder | binding [5] | further results |
| --- | --- | --- |
| B1 |  | binding (mouse CD99 (mouse) [1]): binds; binding [2]: binds; binding (mouse CD99 (mouse) [3]): binds |
| B2 |  | binding [4]: binds |
| B3 | binds |  |
| B4 | binds |  |
| B5 | binds |  |
| B6 | binds |  |
| B7 | binds |  |
| B8 | binds |  |
